Assay results from paper PMC7021698.
Results are given in words; binding and its absence hold for the method and conditions named. Binding seen in cells or lysates may run through a third protein. Here binding means that the protein was enriched with, or labelled near, the bait; the list need not be complete. A no says only that the protein was not detected with the bait. Where a sequence is shown, tags or fusion partners need not be part of it.

Amino acid sequences for entries named in this document (tags omitted).
UniProt Q9C0D2: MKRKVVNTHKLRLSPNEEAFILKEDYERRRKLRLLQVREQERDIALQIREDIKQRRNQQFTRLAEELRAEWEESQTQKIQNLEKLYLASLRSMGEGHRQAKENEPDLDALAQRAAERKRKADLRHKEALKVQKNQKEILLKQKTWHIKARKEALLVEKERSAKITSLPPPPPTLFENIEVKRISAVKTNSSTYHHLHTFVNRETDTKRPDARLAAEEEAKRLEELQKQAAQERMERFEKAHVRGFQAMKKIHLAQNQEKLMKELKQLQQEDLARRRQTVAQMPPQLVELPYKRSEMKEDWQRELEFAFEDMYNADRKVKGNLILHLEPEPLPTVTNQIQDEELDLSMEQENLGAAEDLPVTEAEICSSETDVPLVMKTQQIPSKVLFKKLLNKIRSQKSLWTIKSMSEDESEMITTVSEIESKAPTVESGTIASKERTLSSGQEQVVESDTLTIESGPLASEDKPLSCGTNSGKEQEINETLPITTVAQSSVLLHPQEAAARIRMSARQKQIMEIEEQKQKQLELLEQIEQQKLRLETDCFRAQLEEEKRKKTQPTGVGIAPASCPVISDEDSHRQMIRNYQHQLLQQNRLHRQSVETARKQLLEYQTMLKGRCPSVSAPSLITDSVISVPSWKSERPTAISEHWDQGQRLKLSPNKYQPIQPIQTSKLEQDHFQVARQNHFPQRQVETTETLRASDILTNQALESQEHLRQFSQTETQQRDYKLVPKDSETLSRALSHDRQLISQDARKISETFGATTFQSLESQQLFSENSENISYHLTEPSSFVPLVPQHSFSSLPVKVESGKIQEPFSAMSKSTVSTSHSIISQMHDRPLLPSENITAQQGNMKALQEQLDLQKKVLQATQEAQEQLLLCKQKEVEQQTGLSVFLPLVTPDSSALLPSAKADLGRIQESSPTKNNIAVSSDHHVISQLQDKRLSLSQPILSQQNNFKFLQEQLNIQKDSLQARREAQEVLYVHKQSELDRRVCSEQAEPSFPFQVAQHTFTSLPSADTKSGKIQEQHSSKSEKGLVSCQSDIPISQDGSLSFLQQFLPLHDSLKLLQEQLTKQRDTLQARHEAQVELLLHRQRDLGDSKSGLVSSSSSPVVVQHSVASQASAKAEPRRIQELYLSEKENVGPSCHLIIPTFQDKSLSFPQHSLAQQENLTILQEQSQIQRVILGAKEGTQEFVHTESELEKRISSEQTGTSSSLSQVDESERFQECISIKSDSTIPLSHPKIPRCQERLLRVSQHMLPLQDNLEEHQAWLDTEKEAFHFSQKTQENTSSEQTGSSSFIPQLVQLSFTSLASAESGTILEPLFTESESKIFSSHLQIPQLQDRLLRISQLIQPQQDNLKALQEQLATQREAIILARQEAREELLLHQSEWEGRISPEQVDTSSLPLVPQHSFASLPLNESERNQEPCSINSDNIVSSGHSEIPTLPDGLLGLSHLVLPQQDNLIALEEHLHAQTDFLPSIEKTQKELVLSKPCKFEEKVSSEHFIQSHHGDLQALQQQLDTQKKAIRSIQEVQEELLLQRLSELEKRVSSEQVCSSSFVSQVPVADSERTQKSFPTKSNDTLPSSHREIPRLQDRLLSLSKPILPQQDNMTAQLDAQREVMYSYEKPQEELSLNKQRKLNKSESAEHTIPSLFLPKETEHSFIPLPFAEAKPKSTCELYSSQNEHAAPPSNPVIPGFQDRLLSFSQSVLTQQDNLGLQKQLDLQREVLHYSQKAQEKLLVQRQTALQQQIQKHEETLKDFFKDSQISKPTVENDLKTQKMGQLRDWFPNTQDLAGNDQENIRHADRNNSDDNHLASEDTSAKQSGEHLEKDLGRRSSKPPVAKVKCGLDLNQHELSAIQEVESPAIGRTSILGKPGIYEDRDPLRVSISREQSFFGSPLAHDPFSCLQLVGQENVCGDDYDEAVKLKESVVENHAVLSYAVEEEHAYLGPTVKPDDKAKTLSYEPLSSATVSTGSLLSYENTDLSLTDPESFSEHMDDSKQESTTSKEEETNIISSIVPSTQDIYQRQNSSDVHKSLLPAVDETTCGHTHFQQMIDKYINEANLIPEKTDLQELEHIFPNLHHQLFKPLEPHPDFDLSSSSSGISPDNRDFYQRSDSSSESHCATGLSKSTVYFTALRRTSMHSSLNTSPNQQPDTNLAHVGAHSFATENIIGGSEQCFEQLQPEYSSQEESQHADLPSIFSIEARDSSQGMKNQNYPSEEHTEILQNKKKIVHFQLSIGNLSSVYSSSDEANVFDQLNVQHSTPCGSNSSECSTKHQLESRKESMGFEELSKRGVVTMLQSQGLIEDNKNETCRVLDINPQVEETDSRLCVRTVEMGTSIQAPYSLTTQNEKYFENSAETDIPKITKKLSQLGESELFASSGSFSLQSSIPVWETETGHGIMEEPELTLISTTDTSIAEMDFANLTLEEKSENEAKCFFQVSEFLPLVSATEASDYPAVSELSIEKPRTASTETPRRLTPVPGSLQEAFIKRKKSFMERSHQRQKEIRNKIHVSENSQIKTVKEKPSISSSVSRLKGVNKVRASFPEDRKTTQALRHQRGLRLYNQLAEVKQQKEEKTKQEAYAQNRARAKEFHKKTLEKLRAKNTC

Biological target: T1, CEP44-Flag (siRNA-resistant CEP44 cDNA, tetracycline-inducible, in RPE1 cells) (human) (UniProt Q9C0F1)
T1 sequence: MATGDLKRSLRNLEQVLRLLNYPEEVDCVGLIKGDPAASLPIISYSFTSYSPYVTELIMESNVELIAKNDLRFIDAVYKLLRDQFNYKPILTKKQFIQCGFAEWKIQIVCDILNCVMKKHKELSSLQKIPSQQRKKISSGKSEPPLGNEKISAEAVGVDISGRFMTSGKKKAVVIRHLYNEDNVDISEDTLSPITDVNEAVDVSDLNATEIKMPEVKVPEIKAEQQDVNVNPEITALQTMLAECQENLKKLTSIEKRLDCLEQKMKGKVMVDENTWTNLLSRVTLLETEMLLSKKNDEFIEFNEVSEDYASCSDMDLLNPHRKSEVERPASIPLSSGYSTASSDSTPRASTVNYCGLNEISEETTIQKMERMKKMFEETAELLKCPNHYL
Assay: affinity purification with mass spectrometry; Anti-FLAG M2 beads; lysate of 30 x 10^6 RPE1 cells expressing CEP44-Flag (doxycycline); lysis in 150 mM NaCl, 10 mM Tris-Cl, 0.5 mM EDTA, 0.5% NP-40, Benzonase, pH 7.5; eluted with 3X FLAG peptide; control: RPE1 Tet-on wild type cells; n = 1

binding: no binding
Substance: CEP295 (endogenous, RPE1 cells) (from UniProt Q9C0D2 1-2601)
